According to paper PMC2669294, “The Spliceosomal Phosphopeptide P140 Controls the Lupus Disease by Interacting with the HSC70 Protein and via a Mechanism Mediated by γδ T Cells” (PLoS ONE, 2009):
Results are given in words; binding and its absence hold for the method and conditions named.

Biological target: T1, recombinant bovine HSC70 (bovine, UniProt P19120 1-650)
T1 construct: heat-shock cognate HSC70 protein, bovine, recombinant (Stressgen); Immobilised through one of its four thiol groups in the SPR experiment; no tag is named; also called recombinant HSC70 protein; source: bought: Stressgen (recombinant)
Test: SPR; BIAcore 3000; recombinant bovine HSC70 immobilised on CM5 chip through its thiol groups (13,000 RU); peptides injected (1.56 to 12.5 µM) 3 min, dissociation 3 min; 25°C, 20 µL/min; HBS-EP pH 7.4; 1:1 Langmuir model; both purified

- binding: no binding
Binder: YVSRYFGSAIRHEPKMKIYRG (phosphoserine at position 8 of the peptide (pS in the printed letters)) [scrambled peptide P140 (ScP140)]
